# Assay results: the supplement of paper PMC12889115
# Some of the results follow. Values are raw readings; no control value is given beside them.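 In the initial screen, polymyxin B was used at a concentration that permeabilizes Salmonella's outer membrane but not its inner membrane. Maximum growth was set by DMSO wells with or without polymyxin B. Since plates varied, data were ranked per plate, and compounds giving the lowest OD600 advanced as hits.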
# System: Salmonella enterica serovar Typhimurium SL1344
# Assay: bacterial growth OD600 after 18 h with compound and polymyxin B; higher = more bacterial growth (less inhibition)
# Settings: 50 µM, Mueller-Hinton broth
SMILES,bacterial growth OD600 (polymyxin B 0.75 µg/mL),bacterial growth OD600 (polymyxin B 1 µg/mL)
COc1ccc(CC2(CCC(=O)NCCc3nc(-c4ccccc4)cs3)CCC(=O)N2)c(F)c1 (stereo unspecified),0.758,–
CCn1ncc(CN2CCc3[nH]nc(-c4cccc(F)c4)c3C2)c1C,0.811,–
Cc1c(C(=O)NC2CC2)sc2ncnc(N3CCCCCCC3)c12,0.032,–
CCO[C@H]1[C@H](NC(=O)c2cccnc2)c2ccccc2C12CCN(C(=O)CC1=CCCCC1)CC2,0.598,–
CC(=O)N1CCC(N2CCCC(CCc3cccc(F)c3)C2)CC1 (stereo unspecified),0.835,–
COC(C(=O)Nc1ccnn1C1CCN(C(=O)c2sccc2C)CC1)c1ccccc1 (stereo unspecified),–,0.89
Cc1c(C(C)NCc2ccc(F)cc2F)cnn1-c1cccc(F)c1 (stereo unspecified),0.776,–
COc1cc(OC)c(OC)cc1CN1CCC(CO)(CCCc2ccccc2)CC1,–,0.882
O=C(c1ccc(NC2CCC2)nc1)N1CCC(CCn2cccn2)CC1,–,0.962
CC1CCN(C(=O)CCC2(Cc3ccc4ccccc4c3)CCC(=O)N2)CC1 (stereo unspecified),0.847,–
Cc1ccc2oc(C(=O)N3CCC(O)(c4ccccc4)CC3)c(C)c2c1,–,0.856
Cc1oc(-c2ccc(Cl)cc2)nc1CN1CCOCC1,–,0.7
CCO[C@H]1[C@H](NC(=O)c2ccco2)c2ccccc2C12CCN(C(=O)[C@H]1C[C@@H]3C=C[C@H]1C3)CC2,0.629,–
CC(C)c1nc(CNc2nncc(-c3cccc(F)c3)n2)cs1,–,0.804
CN(C(=O)c1ccc(Cl)s1)C1CCCN(CCc2ccccc2)C1 (stereo unspecified),0.46,–
Cc1cc(CN(C)C(=O)c2coc(COc3cccc(F)c3F)n2)on1,0.756,–

SMILES,bacterial growth OD600 (polymyxin B 0.75 µg/mL),bacterial growth OD600 (polymyxin B 1 µg/mL)
COc1cccc(CC(C2CCN(C(=O)CC3CCCCC3)CC2)N(C)C(=O)c2ccn(C)n2)c1 (stereo unspecified),0.737,–
CCOC(=O)C1(CCCc2ccccc2)CCN(C(=O)CN2C(=O)CSC2=O)CC1,–,0.818
Cc1ccccc1CN1CCC(N2CCC(C(=O)N3CCCC3)CC2)CC1,–,0.908
O=C(NCC1CCCN(Cc2cccc(F)c2F)C1)c1cccs1 (stereo unspecified),–,0.875
O=C(NC1CCCCCCC1)C1CCC(=O)N(CCc2cccc(F)c2)C1 (stereo unspecified),–,0.707
C/C=C(\C)C(=O)N1CCC(C2(Cc3cccc(F)c3)NC(=O)N(CCCN(C)C)C2=O)CC1 (stereo unspecified),0.85,–
O=C(NCc1ccccc1F)C1CCCN(C2CCN(C(=O)C3CC3)CC2)C1 (stereo unspecified),0.796,–
COc1ccc(OC)c(Cc2nnc(CCC(=O)NC(C)c3nccs3)o2)c1 (stereo unspecified),–,0.821
O=C1CCC(CCC(=O)N2CCC(c3ccccc3F)C2)(Cc2ccc3ccccc3c2)N1 (stereo unspecified),0.011,–
CCNC(=O)c1cn(CC(C)C)cc(C(=O)N(C)Cc2ccccc2)c1=O,0.826,–
OC(c1ccc2c(c1)CN(Cc1cccnc1)CCO2)C(c1ccccc1)c1ccccc1 (stereo unspecified),0.748,–
Cn1c(C2CCC2)nc2cc(C(=O)NCc3nc4c(s3)CCCC4)cc(NC(=O)C3CCCO3)c21 (stereo unspecified),0.848,–
Cc1nc(CN2CCN(C(=O)CCN3Cc4ccccc4OC(c4ccccc4F)C3)CC2)cs1 (stereo unspecified),0.777,–
CSc1cccc(CNC(=O)c2ccc3oc(C(C)C)nc3c2)c1,0.364,–
Cc1c(C(C)NCc2ccccc2F)cnn1-c1cccc(F)c1 (stereo unspecified),–,0.877

# A draw from above in order of length of the SMILES, rising.
SMILES,bacterial growth OD600 (polymyxin B 0.75 µg/mL),bacterial growth OD600 (polymyxin B 1 µg/mL)
CN(C(=O)c1ccc(Cl)s1)C1CCCN(CCc2ccccc2)C1 (stereo unspecified),0.46,–
O=C(NC1CCCCCCC1)C1CCC(=O)N(CCc2cccc(F)c2)C1 (stereo unspecified),–,0.707
COc1ccc(CC2(CCC(=O)NCCc3nc(-c4ccccc4)cs3)CCC(=O)N2)c(F)c1 (stereo unspecified),0.758,–
